Measured values taken from patent US12678411B2, “Nanoformulations of pazopanib, compositions comprising the same and methods of treating osteoarthritis” (The United States Government as represented by the …, priority 2021, dated 2026).
“Also recorded” adds a separate entry of the source. At least one compound was matched to its structure with a doubt left.

What was measured:
[1] = system: mice with knee joint OA (PMM); experiment: Mechanical allodynia (von Frey) in surgery-induced (PMM) knee OA mice; assay type: in vivo; conditions: for mechanical allodynia: started at early OA stage (4 weeks after surgery)
Procedure: Drugs are intraarticularly injected (twice/week) at 4 weeks after surgery (early OA stage). *p<0.05; **p<0.01; ***p<0.001; ****p<0.0001. PMM=partial medial meniscectomy.
2006; 33(2):348-354; and Kroin J S, et al. Gene. 2016. 10; 591(1): 1-5). Next, outcomes between IA injection of ZD6474 (also known as vandetanib, a selective inhibitor of Flk1, 70 μg/kg, injection frequency: twice per week) and pazopanib (an inhibitor of both Flt1 and Flk1, 70 μg/kg, injection frequency: twice per week) were compared. Twice perweek IA injection of these drugs was started at an inflammatory pain stage (within a week post-surgery) and continued for 12 weeks. After 12 weeks, joints were harvested, histopathological analyses performed, and pathological grading quantified by standard Osteoarthritis Research Society International (OARSI) scoring (1: Healthy, 5: Highly pathologic) (K. O. Vasquez and J. D. Peterson. J Pharmacol Exp Ther 2017, 361:87-98).
Nanoparticles of PEG-PCL (5k-b-6.5k) encapsulating pazopanib were prepared by the flash nanoprecipitation method using a multi-inlet vortex mixer (MIVM) (FIG. 13, nano-PAZ(I)). The resulting composition was intraarticularly injected into the knee joint of mice at the inflammatory pain stage (at one week after OA induction by surgery).

[2] = system: cartilage of OA knee joint; experiment: Knee joint histopathology, safranin O staining with OARSI score; assay type: in vivo, mice; conditions: IA 70 μg/kg twice per week for 12 weeks from inflammatory pain stage
[3] = system: cartilage of OA knee joint; conditions: literature reports; cited from earlier work
Flt1 = target: T1, Flt1 (Mus musculus, UniProt P35969); experiment: Activation of Flt1 in DRG sensory neurons; conditions: in vivo
T1 construct: from tissue; host or cells: dorsal root ganglion (DRG) sensory neurons
T1 sequence (P35969 23-1333): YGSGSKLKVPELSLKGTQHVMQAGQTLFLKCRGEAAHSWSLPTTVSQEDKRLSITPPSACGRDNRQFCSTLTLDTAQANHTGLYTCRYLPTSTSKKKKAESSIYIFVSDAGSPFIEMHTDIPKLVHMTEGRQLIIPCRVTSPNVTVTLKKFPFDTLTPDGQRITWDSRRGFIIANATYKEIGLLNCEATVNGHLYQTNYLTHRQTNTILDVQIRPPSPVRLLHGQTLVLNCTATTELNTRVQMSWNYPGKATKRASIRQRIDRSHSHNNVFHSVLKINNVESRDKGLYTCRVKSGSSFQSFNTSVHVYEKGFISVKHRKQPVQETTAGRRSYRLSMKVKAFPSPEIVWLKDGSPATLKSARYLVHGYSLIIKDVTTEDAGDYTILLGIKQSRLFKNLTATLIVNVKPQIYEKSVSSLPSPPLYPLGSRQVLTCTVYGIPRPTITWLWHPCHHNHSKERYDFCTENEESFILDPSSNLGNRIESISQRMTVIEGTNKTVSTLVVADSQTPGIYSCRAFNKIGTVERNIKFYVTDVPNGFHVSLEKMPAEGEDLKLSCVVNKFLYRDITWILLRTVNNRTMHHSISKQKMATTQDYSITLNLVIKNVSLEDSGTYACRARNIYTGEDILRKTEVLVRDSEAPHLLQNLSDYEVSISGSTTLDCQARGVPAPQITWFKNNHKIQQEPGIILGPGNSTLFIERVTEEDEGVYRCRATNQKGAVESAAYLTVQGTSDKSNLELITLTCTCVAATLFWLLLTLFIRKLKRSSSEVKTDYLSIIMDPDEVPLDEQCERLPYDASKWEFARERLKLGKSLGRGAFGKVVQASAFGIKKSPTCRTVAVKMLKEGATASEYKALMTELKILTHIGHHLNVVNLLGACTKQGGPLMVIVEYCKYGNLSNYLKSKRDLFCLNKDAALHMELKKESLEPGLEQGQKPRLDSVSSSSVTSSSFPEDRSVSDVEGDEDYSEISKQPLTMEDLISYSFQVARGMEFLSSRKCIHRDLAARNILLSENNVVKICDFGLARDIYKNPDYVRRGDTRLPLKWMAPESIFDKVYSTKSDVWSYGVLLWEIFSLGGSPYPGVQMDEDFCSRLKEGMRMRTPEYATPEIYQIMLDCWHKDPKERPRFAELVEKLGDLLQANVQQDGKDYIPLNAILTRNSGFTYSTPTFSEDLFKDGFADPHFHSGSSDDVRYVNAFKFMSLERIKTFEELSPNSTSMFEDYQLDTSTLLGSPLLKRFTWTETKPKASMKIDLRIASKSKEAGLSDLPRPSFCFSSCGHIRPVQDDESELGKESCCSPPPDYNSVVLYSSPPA

[4] = system: spinal astroglial activation; experiment: Spinal astroglial activation (GFAP immunofluorescence) in OA model; assay type: in vivo; conditions: IA twice/week, 70 μg/kg

SMILES | mechanical allodynia ([1]; IA twice/week) | cartilage preservation (histology, OARSI) [2] | OA pathology [3] | joint pain reduction ([1]; IA 70 μg/kg twice per week, started at inflammatory pain stage) | joint pain ([1]; IA twice/week, started at advanced OA stage (8 weeks after surgery)) | activation of Flt1 (not Flk1) in DRG sensory neurons (Flt1) | spinal astroglial activation [4]
COc1cc2c(Nc3ccc(Br)cc3F)ncnc2cc1OCC1CCN(C)CC1 [ZD6474, vandetanib] | not | preserved cartilage with similar degrees of protection | reduces OA pathology |  |  |  | 
Cc1ccc(Nc2nccc(N(C)c3ccc4c(C)n(C)nc4c3)n2)cc1S(N)(=O)=O [pazopanib, Pazopanib] | rapidly reduced mechanical allodynia | preserved cartilage with similar degrees of protection |  | rapid joint pain relief; also recorded: far greater than by anti-VEGF Ab treatment | promptly reduced joint pain | completely abolished | abolished
